We go through eleven targets from the supplement of paper PMC12819154, “High-throughput peptide-centric local stability assay extends protein–ligand identification to membrane proteins, tissues and bacteria” (Nature Structural & Molecular Biology, 2025).

The chains behind the UniProt entries cited, without tags or fusion partners. Where a name states a change or a piece, a line headed by the entry shows the natural chain unless it says otherwise.
UniProt Q15008: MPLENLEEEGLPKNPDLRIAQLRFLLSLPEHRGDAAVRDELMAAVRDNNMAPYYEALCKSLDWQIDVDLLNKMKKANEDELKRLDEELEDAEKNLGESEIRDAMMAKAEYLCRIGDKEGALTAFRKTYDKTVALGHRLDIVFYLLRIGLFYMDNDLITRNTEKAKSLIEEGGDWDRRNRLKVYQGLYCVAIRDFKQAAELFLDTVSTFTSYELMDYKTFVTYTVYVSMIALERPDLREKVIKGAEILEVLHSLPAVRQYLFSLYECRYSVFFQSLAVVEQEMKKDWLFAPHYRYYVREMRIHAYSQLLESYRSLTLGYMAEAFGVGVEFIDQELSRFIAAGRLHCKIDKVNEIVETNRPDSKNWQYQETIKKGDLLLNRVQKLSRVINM
UniProt Q13885, whole entry: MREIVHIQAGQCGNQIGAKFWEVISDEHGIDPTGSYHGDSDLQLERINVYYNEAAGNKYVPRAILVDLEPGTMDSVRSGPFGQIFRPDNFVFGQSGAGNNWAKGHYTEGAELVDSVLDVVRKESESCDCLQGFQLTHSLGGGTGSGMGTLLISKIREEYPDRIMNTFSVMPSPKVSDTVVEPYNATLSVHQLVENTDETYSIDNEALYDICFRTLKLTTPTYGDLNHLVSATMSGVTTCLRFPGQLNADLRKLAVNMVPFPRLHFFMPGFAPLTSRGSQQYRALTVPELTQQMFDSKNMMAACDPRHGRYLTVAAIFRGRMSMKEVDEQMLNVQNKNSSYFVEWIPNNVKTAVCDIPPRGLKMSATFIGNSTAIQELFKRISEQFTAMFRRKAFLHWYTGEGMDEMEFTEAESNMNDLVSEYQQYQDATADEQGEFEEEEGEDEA
UniProt Q14181: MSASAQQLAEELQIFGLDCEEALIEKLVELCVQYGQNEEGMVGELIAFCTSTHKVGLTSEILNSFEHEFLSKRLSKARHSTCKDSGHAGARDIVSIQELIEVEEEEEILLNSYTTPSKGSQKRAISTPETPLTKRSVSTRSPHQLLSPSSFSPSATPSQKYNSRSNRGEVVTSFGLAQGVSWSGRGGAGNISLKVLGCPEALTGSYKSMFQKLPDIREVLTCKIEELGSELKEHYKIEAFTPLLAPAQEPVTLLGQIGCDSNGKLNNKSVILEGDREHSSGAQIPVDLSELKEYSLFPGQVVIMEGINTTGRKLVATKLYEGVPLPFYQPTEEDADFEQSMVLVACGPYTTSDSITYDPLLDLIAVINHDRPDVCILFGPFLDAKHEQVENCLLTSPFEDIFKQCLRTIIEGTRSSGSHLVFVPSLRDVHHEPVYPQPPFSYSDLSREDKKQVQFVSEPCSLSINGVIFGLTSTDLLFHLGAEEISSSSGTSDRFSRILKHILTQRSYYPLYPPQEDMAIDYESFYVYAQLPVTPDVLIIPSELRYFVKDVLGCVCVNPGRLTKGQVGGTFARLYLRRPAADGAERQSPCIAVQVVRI
UniProt Q13416: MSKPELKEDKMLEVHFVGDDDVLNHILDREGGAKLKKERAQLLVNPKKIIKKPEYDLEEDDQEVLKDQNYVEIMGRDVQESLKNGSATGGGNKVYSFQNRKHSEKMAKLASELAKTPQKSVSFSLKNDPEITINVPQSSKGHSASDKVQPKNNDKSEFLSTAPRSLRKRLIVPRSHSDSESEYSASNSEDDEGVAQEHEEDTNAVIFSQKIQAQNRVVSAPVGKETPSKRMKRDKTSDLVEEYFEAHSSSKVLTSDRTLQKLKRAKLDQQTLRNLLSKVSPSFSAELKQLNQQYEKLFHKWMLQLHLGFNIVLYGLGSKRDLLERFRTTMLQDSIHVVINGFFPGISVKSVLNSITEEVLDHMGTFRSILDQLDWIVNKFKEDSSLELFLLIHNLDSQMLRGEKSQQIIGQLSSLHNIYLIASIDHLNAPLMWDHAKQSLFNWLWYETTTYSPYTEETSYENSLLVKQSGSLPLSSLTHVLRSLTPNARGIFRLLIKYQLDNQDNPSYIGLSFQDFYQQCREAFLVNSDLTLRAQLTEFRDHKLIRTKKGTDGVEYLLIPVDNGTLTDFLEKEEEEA
UniProt Q13247: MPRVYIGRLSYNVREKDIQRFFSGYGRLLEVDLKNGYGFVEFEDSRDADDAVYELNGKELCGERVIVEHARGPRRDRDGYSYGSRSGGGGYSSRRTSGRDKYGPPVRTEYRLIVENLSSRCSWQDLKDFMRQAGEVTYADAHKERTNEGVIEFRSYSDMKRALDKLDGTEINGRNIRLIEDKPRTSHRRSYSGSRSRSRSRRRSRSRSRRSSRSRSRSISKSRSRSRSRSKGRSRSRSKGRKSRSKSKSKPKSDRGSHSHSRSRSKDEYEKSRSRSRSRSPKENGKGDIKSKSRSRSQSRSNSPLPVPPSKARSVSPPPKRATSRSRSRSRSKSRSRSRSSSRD
UniProt Q14203, whole entry: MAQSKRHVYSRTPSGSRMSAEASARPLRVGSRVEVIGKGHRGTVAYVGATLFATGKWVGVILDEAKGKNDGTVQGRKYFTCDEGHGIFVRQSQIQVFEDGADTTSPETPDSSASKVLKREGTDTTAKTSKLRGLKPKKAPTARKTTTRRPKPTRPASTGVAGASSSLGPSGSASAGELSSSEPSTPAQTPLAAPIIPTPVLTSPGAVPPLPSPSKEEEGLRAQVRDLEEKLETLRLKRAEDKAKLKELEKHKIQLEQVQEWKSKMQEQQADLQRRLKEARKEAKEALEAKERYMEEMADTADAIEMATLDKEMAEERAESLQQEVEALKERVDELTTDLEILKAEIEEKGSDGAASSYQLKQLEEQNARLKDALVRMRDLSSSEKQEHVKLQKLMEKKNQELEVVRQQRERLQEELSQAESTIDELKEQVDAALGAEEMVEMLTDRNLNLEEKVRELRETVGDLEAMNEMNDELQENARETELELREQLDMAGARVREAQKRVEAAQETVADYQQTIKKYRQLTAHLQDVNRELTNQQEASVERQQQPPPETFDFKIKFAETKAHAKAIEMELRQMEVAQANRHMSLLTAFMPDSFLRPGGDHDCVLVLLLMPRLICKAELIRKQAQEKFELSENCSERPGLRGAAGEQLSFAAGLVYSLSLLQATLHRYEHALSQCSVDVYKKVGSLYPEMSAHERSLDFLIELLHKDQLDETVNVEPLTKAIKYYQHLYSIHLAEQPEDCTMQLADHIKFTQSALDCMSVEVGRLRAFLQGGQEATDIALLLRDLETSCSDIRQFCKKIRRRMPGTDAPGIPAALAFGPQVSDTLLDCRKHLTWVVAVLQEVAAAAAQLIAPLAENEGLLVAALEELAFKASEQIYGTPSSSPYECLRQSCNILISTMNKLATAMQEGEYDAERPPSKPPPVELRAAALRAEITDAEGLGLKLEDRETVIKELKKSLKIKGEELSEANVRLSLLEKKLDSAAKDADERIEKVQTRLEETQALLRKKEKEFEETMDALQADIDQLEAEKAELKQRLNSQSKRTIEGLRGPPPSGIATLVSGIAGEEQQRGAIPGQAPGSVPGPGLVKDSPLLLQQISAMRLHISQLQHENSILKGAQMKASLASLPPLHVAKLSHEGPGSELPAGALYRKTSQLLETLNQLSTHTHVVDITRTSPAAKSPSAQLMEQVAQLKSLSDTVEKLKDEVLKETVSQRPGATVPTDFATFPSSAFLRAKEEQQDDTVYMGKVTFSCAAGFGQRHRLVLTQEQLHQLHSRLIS
UniProt Q14191, whole entry: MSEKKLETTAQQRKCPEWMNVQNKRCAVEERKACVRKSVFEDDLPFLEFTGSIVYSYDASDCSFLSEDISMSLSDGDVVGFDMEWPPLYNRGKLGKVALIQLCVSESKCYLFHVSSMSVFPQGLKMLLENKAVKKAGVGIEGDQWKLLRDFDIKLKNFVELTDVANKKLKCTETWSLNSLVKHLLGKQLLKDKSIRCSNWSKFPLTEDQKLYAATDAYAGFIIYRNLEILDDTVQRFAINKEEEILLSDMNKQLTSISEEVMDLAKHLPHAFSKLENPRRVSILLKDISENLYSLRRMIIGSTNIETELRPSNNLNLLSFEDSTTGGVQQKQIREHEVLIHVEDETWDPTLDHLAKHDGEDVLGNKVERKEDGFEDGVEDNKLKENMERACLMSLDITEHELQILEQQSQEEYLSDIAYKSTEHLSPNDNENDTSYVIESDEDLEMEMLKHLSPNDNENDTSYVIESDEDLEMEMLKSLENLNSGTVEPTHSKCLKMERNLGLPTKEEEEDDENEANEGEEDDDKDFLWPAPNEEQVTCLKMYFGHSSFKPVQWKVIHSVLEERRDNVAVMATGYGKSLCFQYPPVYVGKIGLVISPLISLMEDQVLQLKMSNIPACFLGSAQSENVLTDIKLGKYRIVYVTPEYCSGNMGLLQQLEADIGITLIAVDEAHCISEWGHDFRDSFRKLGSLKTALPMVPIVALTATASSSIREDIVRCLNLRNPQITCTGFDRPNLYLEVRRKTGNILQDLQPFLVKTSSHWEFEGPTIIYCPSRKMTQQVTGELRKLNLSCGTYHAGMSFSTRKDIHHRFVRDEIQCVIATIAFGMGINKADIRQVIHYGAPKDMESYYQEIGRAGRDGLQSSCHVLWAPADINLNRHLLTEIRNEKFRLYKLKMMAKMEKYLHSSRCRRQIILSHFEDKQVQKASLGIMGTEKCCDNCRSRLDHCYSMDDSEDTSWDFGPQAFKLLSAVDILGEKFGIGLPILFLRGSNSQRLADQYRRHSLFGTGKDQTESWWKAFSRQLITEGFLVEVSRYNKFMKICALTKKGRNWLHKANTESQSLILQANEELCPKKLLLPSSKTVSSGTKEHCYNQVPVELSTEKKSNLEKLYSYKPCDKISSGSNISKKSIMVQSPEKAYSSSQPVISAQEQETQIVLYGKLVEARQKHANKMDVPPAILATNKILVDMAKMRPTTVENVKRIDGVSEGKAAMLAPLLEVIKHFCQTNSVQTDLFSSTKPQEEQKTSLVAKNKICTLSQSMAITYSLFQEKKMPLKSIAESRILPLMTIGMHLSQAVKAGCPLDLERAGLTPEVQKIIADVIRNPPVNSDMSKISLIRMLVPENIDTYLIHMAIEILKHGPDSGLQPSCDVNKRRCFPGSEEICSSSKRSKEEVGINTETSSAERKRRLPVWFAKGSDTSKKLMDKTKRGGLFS
UniProt Q13867: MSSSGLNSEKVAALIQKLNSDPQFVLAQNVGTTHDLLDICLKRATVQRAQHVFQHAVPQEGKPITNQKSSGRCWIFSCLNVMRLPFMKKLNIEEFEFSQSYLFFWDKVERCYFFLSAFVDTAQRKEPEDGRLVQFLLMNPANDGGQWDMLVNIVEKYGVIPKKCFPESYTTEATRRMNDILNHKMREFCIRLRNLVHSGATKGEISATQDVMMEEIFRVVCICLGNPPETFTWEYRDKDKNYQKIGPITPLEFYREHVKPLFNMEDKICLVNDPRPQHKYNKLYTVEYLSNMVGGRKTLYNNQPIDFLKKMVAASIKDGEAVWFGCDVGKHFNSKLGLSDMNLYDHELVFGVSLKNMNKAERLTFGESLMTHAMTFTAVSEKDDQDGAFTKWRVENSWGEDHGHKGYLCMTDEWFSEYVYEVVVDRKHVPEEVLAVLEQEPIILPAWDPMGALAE
UniProt Q13951, whole entry: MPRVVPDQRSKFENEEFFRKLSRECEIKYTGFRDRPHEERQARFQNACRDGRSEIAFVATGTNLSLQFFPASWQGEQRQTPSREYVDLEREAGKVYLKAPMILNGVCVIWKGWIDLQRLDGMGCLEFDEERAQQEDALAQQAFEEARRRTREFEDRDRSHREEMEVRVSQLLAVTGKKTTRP
UniProt Q13242, whole entry: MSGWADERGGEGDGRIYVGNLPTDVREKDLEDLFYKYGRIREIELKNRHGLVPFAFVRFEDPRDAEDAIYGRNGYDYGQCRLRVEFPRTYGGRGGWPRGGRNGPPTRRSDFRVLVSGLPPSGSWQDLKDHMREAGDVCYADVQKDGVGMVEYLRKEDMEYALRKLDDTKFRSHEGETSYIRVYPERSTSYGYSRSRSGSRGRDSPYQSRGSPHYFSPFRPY

Some of the results follow. Most values lie at the level of the controls, where differences are scatter.

Compound in the assay: CN[C@@H]1C[C@H]2O[C@@](C)([C@@H]1OC)n1c3ccccc3c3c4c(c5c6ccccc6n2c5c31)C(=O)NC4 [staurosporine]
Put plainly: log2 fold change of tryptic peptide abundance, ligand vs vehicle (limited proteolysis) (log2 ratio); higher = more trypsin-susceptible (destabilized). The following applies: ligand concentration: 20 uM; sample: K562 cleared lysate; digestion: 4 min, 22 C (HT-PELSA RT4min, Orbitrap Astral).
For the target “PSMD6 (peptide sequence: EGALTAFRK, peptide start residue: 118) (UniProt Q15008)”, the log2 fold change worked out at 0.542.
Regarding “UniProt Q13885 (peptide sequence: YLTVAAIFR, peptide start residue: 310)”, the log2 fold change is -0.124.
Take “ATR (peptide sequence: QILCQFIDR, peptide start residue: 35) (UniProt Q13535)”: the log2 fold change was -0.145.
Take “POLA2 (peptide sequence: HSTCKDSGHAGAR, peptide start residue: 79) (UniProt Q14181)”: the log2 fold change came to 0.409.
Then “UniProt Q13416 (peptide sequence: DQNYVEIMGR, peptide start residue: 67)”, with -0.506; and “UniProt Q13247 (peptide sequence: LIVENLSSRCSWQDLK, peptide start residue: 106)”, with -0.441; and “DCTN1 (peptide sequence: AKEEQQDDTVYMGK, peptide start residue: 1234) (UniProt Q14203)”, with -0.193.
For the target “WRN (peptide sequence: NLEILDDTVQR, peptide start residue: 226) (UniProt Q14191)”, the log2 fold change was determined as 0.366.
On to “BLMH (peptide sequence: KTLYNNQPIDFLKK, peptide start residue: 297) (UniProt Q13867)”, for which the log2 fold change stood at 0.349.
As for “CBFB (peptide sequence: SHREEMEVR, peptide start residue: 159) (UniProt Q13951)”, the figure is 0.222.
As for “UniProt Q13242 (peptide sequence: GRDSPYQSR, peptide start residue: 201)”, the figure is 0.579.
